Experimental data taken from PubChem BioAssay AID651768 (National Center for Advancing Translational Sciences (NCATS), 2012).
Hit rate of the full screen: of about 360,000 compounds, about 1,700 (0.47%) were called active. Inconclusive results, whose numbers are uncertain, are shown with a selection of clear calls. Calls follow the shape of the dose curve; as a rule, active = well fitted inhibition curve with a large enough effect; inconclusive = small, poorly fitted or top-dose-only effect; inactive = no such curve, though single readings can be large or run the other way. Potencies beside an inconclusive call are fits to weak or partial responses and may not hold up.

By UniProt entry, the sequences of proteins in these tests, tags left out.
UniProt Q14191, whole entry, looked up: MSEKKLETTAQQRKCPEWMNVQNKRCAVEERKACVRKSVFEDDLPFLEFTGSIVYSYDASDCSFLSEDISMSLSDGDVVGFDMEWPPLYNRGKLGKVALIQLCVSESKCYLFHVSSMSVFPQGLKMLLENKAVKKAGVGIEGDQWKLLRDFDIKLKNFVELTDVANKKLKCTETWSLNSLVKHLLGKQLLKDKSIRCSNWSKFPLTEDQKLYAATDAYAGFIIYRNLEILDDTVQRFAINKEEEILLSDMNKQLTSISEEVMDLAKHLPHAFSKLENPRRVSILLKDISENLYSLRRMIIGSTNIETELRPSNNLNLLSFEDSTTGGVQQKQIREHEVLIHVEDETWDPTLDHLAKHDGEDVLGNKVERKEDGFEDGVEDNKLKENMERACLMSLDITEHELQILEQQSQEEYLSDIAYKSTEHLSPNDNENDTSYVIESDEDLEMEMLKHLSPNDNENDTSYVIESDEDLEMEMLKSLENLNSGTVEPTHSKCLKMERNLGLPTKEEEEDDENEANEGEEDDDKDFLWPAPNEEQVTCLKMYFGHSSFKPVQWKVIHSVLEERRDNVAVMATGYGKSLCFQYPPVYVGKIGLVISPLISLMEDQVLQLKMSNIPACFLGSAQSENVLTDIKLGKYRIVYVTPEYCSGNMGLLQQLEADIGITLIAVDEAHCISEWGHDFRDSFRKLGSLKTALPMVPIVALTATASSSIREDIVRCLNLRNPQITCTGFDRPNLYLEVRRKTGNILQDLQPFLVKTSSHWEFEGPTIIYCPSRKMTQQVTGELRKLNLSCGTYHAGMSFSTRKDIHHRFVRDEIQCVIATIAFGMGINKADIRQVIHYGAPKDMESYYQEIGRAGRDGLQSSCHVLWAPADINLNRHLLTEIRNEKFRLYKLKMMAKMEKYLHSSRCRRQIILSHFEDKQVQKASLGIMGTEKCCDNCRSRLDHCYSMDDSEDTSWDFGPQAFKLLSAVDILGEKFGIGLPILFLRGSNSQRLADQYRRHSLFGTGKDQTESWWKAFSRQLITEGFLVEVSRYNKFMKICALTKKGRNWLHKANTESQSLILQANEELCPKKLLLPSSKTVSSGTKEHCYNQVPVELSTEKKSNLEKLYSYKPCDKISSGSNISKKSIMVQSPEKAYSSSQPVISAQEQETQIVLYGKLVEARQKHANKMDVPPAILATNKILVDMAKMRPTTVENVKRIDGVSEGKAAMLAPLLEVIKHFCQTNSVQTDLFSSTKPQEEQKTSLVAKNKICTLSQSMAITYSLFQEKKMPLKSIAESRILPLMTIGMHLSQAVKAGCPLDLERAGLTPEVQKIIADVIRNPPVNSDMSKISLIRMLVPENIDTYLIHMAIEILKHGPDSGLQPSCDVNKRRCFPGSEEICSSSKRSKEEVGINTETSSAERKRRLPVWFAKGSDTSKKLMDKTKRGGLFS

The molecules below were run against Bifunctional 3'-5' exonuclease/ATP-dependent helicase WRN (Homo sapiens) (UniProt Q14191) (assay: qHTS for Inhibitors of WRN Helicase). Conditions: WRN helicase unwinding, fluorescent forked duplex, kinetic; activity change, negative = inhibition: at 114 µM (top of the series) unless noted.
How it was run: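 Kinetic fluorescence helicase assay: unwinding of a quenched forked DNA duplex (100 nM final) with 2 mM ATP final raises red fluorescence (525/598 nm). Compounds sat 15 min at room temperature with 20 nM WRN beforehand.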
% is scaled to controls: 0 for no effect and ±100 for the full control effect; potency is read from the fitted curve at half-maximal effect.
Also: nearly all actives have a fitted effect of over 55% in size.

Row | SMILES | Potency | activity change, negative = inhibition
1 | C/C(=N/OC(=O)c1ccc(C)cc1)c1cccs1 | inactive | –
2 | O=C(/C=C/c1ccc2c(c1)OCO2)Nc1c(C(=O)O)[nH]c2ccccc12 | inconclusive: 11.2 µM [inhibitor, partial curve] | –
3 | O=C1Nc2ccccc2Oc2cc([N+](=O)[O-])ccc21 | – | inactive: -11.1% [at 11.6 µM]
4 | O=C(O)COc1ccccc1C(Nc1ccccn1)c1cc(Cl)c2cccnc2c1O (centres undefined) | inconclusive: 35.5 µM [inhibitor, partial curve] | –
5 | COc1ccc(-c2cc(NC=O)c3ncc(-c4cc(OC)c(OC)c(OC)c4)n3c2)cc1 | active: 79.4 µM | –
6 | Cc1cc(OCC(=O)Nc2ccc(CN3CCOCC3)cc2)ccc1Cl | inconclusive: 70.8 µM [inhibitor, single point] | –
7 | COCCN(CC(=O)Nc1ccccc1C(F)(F)F)C(=O)/C=C/c1cc(Cl)c2c(c1)OCCO2 | inconclusive: 15.8 µM [inhibitor, single point] | –
8 | Cc1ccc(-n2sc3cc(F)ccc3c2=O)c(C)c1 | inactive | –
9 | Cc1cccc(-n2c(O)c(C=Nc3ccccc3O)c3ccccc3c2=O)n1 | inconclusive: 39.8 µM [inhibitor, partial curve] | –
10 | O=C1C=CC(=O)N1CCCCCCN1C(=O)C=CC1=O | active: 20 µM | –
11 | O=C(Nc1cccc(S(=O)(=O)NC2=NCCCCC2)c1)C1COc2ccccc2O1 (centres undefined) | inconclusive: 56.2 µM [inhibitor, partial curve] | –
12 | CCn1nc([N+](=O)[O-])c(C(C#N)c2nc3cc(C(F)(F)F)ccc3s2)c(Cl)c1=O (centres undefined) | inconclusive: 50.1 µM [inhibitor, partial curve] | –
13 | O=C(Nc1ccc(NC(=O)c2ccco2)c(Cl)c1)c1ccc2c(c1)OCCO2 | inconclusive: 50.1 µM [inhibitor, partial curve] | –
14 | COc1ccccc1/C=C/C=C(\C#N)C(=O)NC(C)c1ccccc1 (centres undefined) | inconclusive: 79.4 µM [inhibitor, single point] | –
15 | Cc1c(C(=O)c2no[n+]([O-])c2C(=O)c2cnn(C)c2C)cnn1C | inconclusive: 50.1 µM [inhibitor, partial curve] | –
16 | CS(=O)(=O)N(CC(=O)NCc1ccc(Cl)cc1)C1CCCCC1 | inactive | –
17 | COc1cccc(NC(=O)CN(C)C(=O)CCc2nc3sc4c(c3c(=O)[nH]2)CCCC4)c1 | inconclusive: 22.4 µM [inhibitor, single point] | –
18 | N#C/C(=C/c1ccc(N2CCOCC2)o1)c1nc2ccccc2[nH]1 | active: 56.2 µM | –
19 | O=C(O)CNS(=O)(=O)c1c(Cl)cccc1Cl | inactive | –
20 | Cc1ccc(NC(=O)c2ccc(NS(=O)(=O)c3ccc4[nH]c(=O)[nH]c4c3)cc2)nc1 | inconclusive: 89.1 µM [inhibitor, single point] | –
21 | COc1cccc(C(=O)Oc2ccc(/C=N/Nc3ccc(C(=O)O)cc3)cc2OC)c1 | inactive | –
22 | O=C(O)CCNc1ccc(NCCC(=O)O)c2c1C(=O)c1ccccc1C2=O | inconclusive: 2.99 µM [inhibitor, partial curve] | –

13 compounds already listed, arranged by number of heavy atoms, ascending.
Row | SMILES | Potency | activity change, negative = inhibition
19 | O=C(O)CNS(=O)(=O)c1c(Cl)cccc1Cl | inactive | –
1 | C/C(=N/OC(=O)c1ccc(C)cc1)c1cccs1 | inactive | –
10 | O=C1C=CC(=O)N1CCCCCCN1C(=O)C=CC1=O | active: 20 µM | –
16 | CS(=O)(=O)N(CC(=O)NCc1ccc(Cl)cc1)C1CCCCC1 | inactive | –
18 | N#C/C(=C/c1ccc(N2CCOCC2)o1)c1nc2ccccc2[nH]1 | active: 56.2 µM | –
14 | COc1ccccc1/C=C/C=C(\C#N)C(=O)NC(C)c1ccccc1 (centres undefined) | inconclusive: 79.4 µM [inhibitor, single point] | –
6 | Cc1cc(OCC(=O)Nc2ccc(CN3CCOCC3)cc2)ccc1Cl | inconclusive: 70.8 µM [inhibitor, single point] | –
13 | O=C(Nc1ccc(NC(=O)c2ccco2)c(Cl)c1)c1ccc2c(c1)OCCO2 | inconclusive: 50.1 µM [inhibitor, partial curve] | –
12 | CCn1nc([N+](=O)[O-])c(C(C#N)c2nc3cc(C(F)(F)F)ccc3s2)c(Cl)c1=O (centres undefined) | inconclusive: 50.1 µM [inhibitor, partial curve] | –
20 | Cc1ccc(NC(=O)c2ccc(NS(=O)(=O)c3ccc4[nH]c(=O)[nH]c4c3)cc2)nc1 | inconclusive: 89.1 µM [inhibitor, single point] | –
21 | COc1cccc(C(=O)Oc2ccc(/C=N/Nc3ccc(C(=O)O)cc3)cc2OC)c1 | inactive | –
17 | COc1cccc(NC(=O)CN(C)C(=O)CCc2nc3sc4c(c3c(=O)[nH]2)CCCC4)c1 | inconclusive: 22.4 µM [inhibitor, single point] | –
7 | COCCN(CC(=O)Nc1ccccc1C(F)(F)F)C(=O)/C=C/c1cc(Cl)c2c(c1)OCCO2 | inconclusive: 15.8 µM [inhibitor, single point] | –

(more compounds)

Row | SMILES | Potency | activity change, negative = inhibition
23 | Oc1ccc(/C=N/N2CCCCC2)c(O)c1O | inconclusive: 56.2 µM [inhibitor, partial curve] | –
24 | Cc1ccc2nc(C(C)(C)C)c(Cc3cccc(F)c3)n2c1 | inactive | –
25 | CCCCCCN1C=C/C(=C\C=C(C#N)C#N)c2ccccc21 | inconclusive: 3.55 µM [inhibitor, full curve, poor fit] | –
26 | Cc1[nH]n(-c2ccccc2)c(=O)c1N=Nc1ccccc1O | inconclusive: 39.8 µM [inhibitor, single point] | –
27 | CCN1CCN(S(=O)(=O)c2ccc(OC)c(NC(=O)c3ccccc3)c2)CC1 | inconclusive: 89.1 µM [inhibitor, single point] | –
28 | CC12CCC(C/C1=N\N=C1\NC(=O)/C(=C\c3ccc(Cl)cc3)S1)C2(C)C (centres undefined) | inconclusive: 50.1 µM [inhibitor, partial curve] | –
29 | CCCOc1ccc(C(=O)CCN2CCN(C(=O)OCC)CC2)cc1 | inconclusive: 44.7 µM [inhibitor, partial curve] | –
30 | CN(C)c1cc(-c2cccc(C(F)(F)F)c2)oc(=O)c1Cl | inconclusive: 39.8 µM [inhibitor, single point] | –
31 | O=C(O)CC(C(=O)O)N1C(=O)/C(=C/C=C/c2ccco2)SC1=S (centres undefined) | active: 10 µM | –
32 | O=C1C(Cl)=C(Nc2cccc(O)c2)C(=O)N1Cc1ccccc1 | inconclusive: 44.7 µM [inhibitor, single point] | –
33 | COc1cc2c(cc1OC)CC(=O)NC=C2 | inconclusive: 70.8 µM [inhibitor, single point] | –
34 | CCOc1ncccc1C(=O)N=c1sccn1C | inconclusive: 89.1 µM [inhibitor, single point] | –
35 | Brc1cccc(Nc2nc(-c3cccnc3)cs2)c1 | inconclusive: 89.1 µM [inhibitor, single point] | –
36 | COCCNC(=O)c1onc(CSc2ccc(C)c(C)c2)c1C(=O)O | inactive | –
37 | C[c-]1[c-](C)[c-](C)[c-](C)[c-]1C.[Fe].c1cc2nccc(N3CCCC3)[c-]2c1 (centres undefined) | inactive | –
38 | COc1ccccc1Cc1nnc(NC(=O)C2CCN(C(=O)c3ccco3)CC2)s1 | inconclusive: 70.8 µM [inhibitor, single point] | –
39 | COC(=O)c1c(NC(=O)CN2C(=O)NC3(CCC(C(C)(C)C)CC3)C2=O)sc2c1CCCCC2 (centres undefined) | inactive | –
40 | O=C(COC(=O)CCC1CCCC1)Nc1ccccc1OC(F)F | inconclusive: 79.4 µM [inhibitor, single point] | –
41 | O=C(Nc1cc([N+](=O)[O-])ccc1O)c1ccc2c(c1)C(=O)N(Cc1ccco1)C2=O | inconclusive: 100 µM [inhibitor, partial curve, poor fit] | –
42 | CC(Sc1ccccc1)C(=O)N1CCN(S(=O)(=O)c2ccccc2F)CC1 (centres undefined) | inconclusive: 79.4 µM [inhibitor, single point] | –
43 | Cc1cc(NS(=O)(=O)c2ccc(NC(=O)/C=C/c3c(F)cccc3Cl)cc2)no1 | inconclusive: 20 µM [inhibitor, full curve] | –
44 | Cc1cc(C(=O)COC(=O)CNC(=O)c2ccccc2)c(C)n1CC1CCCO1 (centres undefined) | inconclusive: 89.1 µM [inhibitor, single point] | –
